# Measurements as given in patent publication US20050063989A1, “Ion channel hybrid proteins as electrical sensors and use thereof” (COMMISSARIAT A L'ENERGIE ATOMIQUE, priority 2003, published 2005).
# Test system: Xenopus oocytes
# Assay: Oocyte surface protein assay: chemiluminescent detection of HA epitope
# Type: cell-based, Xenopus laevis
# Settings: HA-tagged fusion proteins
substance,measurement,value
MRP1-Kir6.2: fusion of human MRP1 C-terminus to mouse Kir6.2 N-terminus with hexaglycine spacer,"Surface density of fusion protein, fold lower than SUR1-Kir6.2",5 fold
same,"Surface density of fusion protein, fold lower than SUR2A-Kir6.2",4 fold
